pIC50: −log10 of the molar value. At least one compound was matched to its structure with a doubt left.
Tested on: LDL
Test: Anti-oxidative activity to LDL by TBARS method (Cu2+ mediated LDL-oxidation)
Format: biochemical, human
Conditions: 37° C. 4 hours, MDA by TBARS
Experimental: Cu^2+ is known to mediate LDL-oxidation. Thus, in the present invention, dialdehyde, which is an oxidation product of unsaturated fatty acid formed during Cu^2+ mediated LDL-oxidation, was measured by thiobarbituric acid reactive substances (TBARS) method in order to investigate the LDL anti-oxidative activity of T. nucifera extracts or abietane diterpenoid compound separated from the same (Ahn, B. T. et. al., Low-density Lipoprotein-Antioxidant Constituents of Saururus Chinensis, J. Nat. Prod. 64: 1562, 2001). Centrifugation was performed with 300 ml of human blood plasma by using a ultracentrifuge at 100,000×g for 24 hours to remove floating VLDL/chylomicron layer in the upper part. The specific gravity of the remaining solution was adjusted to 1.063 g/ml. Centrifugation was performed again at 100,000×g for 24 hours, and 25 ml of the floating LDL (1.5˜2.5 mg protein/ml) in the upper layer was separated. […] T. nucifera extracts or abietane diterpenoid compound isolated from the same was dissolved in DMSO (dimethylsulfoxide), and the solution was diluted at different concentrations before use. […] OD540 was measured with a UV/VIS spectrophotometer. Malondialdehyde (MDA) detected by the above coloring was quantified. […] MDA was quantified by using the standard curve in experiments with T. nucifera extracts or abietane diterpenoid compound isolated from the same.

## CC(C)c1cc2c(cc1O)[C@@]1(C)CCCC(C)(C)[C@@H]1CC2 [R = methyl, ferruginol]
  pIC50: 5.72
